Values joined by “and” are separate entries in the source; they are usually repeats but may differ in a detail not shown here. Equal entries are not always repeated. The inconclusive results got no clear call from the source; some entries with a clear call stand among them for comparison. A potency beside an inconclusive call is a rough fit, not a confirmed value. Active and inactive are the calls of the source. Calls come from the whole dose curve; as a rule, active = well fitted inhibition curve with a large enough effect; inconclusive = small, poorly fitted or top-dose-only effect; inactive = no such curve, though single readings can be large or run the other way.
Experiment: Orthogonal mCherry assay for qRT-PCR qHTS of selected Zika virus inhibitors
Settings: Vero cells, ZIKV-mCherry infection imaging, 48-72 h; series mostly up to 32.6 µM; activity change, negative = inhibition: at the top concentration
Text: Description: Assay Submitters (PI): Avindra Nath, Ph.D., National Institute of Neurological Disorders and Stroke (NINDS), Bethesda, MD Radhakrishnan Padmanabhan, Ph.D., Georgetown University (GU), Washington D.C. Zika Virus causes congenital defects, including microcephaly and is associated with Guillain-Barre syndrome, eningoencephalitis and myelitis in infected adult. […] Using a target-based approach, we hope to establish a screening paradigm to uncover novel, cell-active NS2B-NS3 protease (Zika Virus) specific inhibitors from NCATS' collection of small molecules using qHTS. […] Four assay panel was created to identify potential Zika Virus inhibitors. Namely, (1) GU unlinked NS2B-NS3 AMC tagged protease qHTS, (2) GU unlinked NS2B-NS3 Rhodamine tagged protease qHTS, (3) NINDS linked NS2B-NS3 AMC tagged protease qHTS, (4) NINDS linked NS2B-NS3 Rhodamine tagged protease qHTS. Inhibitors of the Zika virus primary screens are confirmed using qRT-PCR secondary assays, mCherry orthogonal assay, and Vero cells viability counterscreen. Early Translation Branch (ETB) National Center for Advancing Translational Sciences (NCATS), Rockville, MD National Institute of Health (NIH), Bethesda, Maryland
384 well ZIKV-mCherry Assay: We have developed a new orthogonal imaging assay in 384-well plate format, which uses recombinant virus ZIKV-mCherry in Vero cells. Briefly, 30 microL of Vero cells derived from a green monkey cell line, were dispensed by Multidrop Dispenser into a clear solid bottom black 384 well plate (ultracarrier, Perkin Elmer LifeSciences) at a concentration of 5,000 cells per well. The plate was incubated overnight in a CO2 incubator at 37 degrees C. Compounds were delivered as a 126 nL DMSO solution by Kalypsys pintool transfer. Following compound transfer, 10 microL of ZIKV-mCherry was added at an MOI of 1 and incubated in a CO2 incubator for 48-72 hrs at 37 degrees C. After sufficient incubation of infected cells in test plates, 8 microL of 32% PFA was dispensed into assay plates to fix cells and incubated for 20 min at room temperature. Plates were washed 3 times with PBS using BioTek EL406 microplate washer/dispenser. After washing, 30 microL of PBS with 0.01% TX-100 containing Hoechst dye was dispensed into the each well of the plates for nuclear staining. 384-well plates were imaged on an automated, widefield high content imager (INCell 2200, GE Healthcare) using a 10x/0.45 NA lens and standard DAPI (nuclear stain) and mCherry (cy5) excitation and emission filters. The TIFFs were quantitated using the canned Multi Target Analysis protocol (GE Investigator Workstation software v3.7.2). Briefly, nuclei from the DAPI channel were identified using top hat segmentation and a sensitivity setting of 96 and minimum size area of 35 microm2. A recombinant Zika viral infection was monitored in the Cy5 channel (cells) using a 2 microm collar dilation from the nuclear bitmap. mCherry objects with an average nuclear RFU intensity above 450 (3 stdev above mean negative control wells) were considered "mcherry positive" and data was analyzed by percent infection rate.

SMILES	activity change, negative = inhibition	Potency
CC1(C)CCC(CN2CCN(c3ccc(C(=O)NS(=O)(=O)c4ccc(NCC5CCOCC5)c([N+](=O)[O-])c4)c(Oc4cnc5[nH]ccc5c4)c3)CC2)=C(c2ccc(Cl)cc2)C1	inactive: 288%	–
Cc1cc(NC(=O)c2ccc(Cl)c(Cl)c2)ccc1-c1cc2ccccc2oc1=O	inactive: 33.7%	–
O=C(O)Cc1cccc(OCCCN(Cc2cccc(C(F)(F)F)c2Cl)CC(c2ccccc2)c2ccccc2)c1	–	inconclusive: 11.2 µM [inhibitor, partial curve, poor fit]
Cc1cc2c(C(C)C)c(O)c(O)c(C=O)c2c(O)c1-c1c(C)cc2c(C(C)C)c(O)c(O)c(C=O)c2c1O	inactive: -104%	–
Cc1cccc(C)c1NS(=O)(=O)c1ccc(NS(=O)(=O)c2ccc3c(c2)OCCO3)cc1	–	active: 3.55 µM
O=C(O)c1ccc(CCCc2ccc(OCCc3ccc(F)cc3)cc2)o1	–	inconclusive: 8.91 µM [inhibitor, full curve, poor fit]
COc1cc(O)c2c(=O)cc(-c3ccc(OC)c(-c4c(O)cc(O)c5c(=O)cc(-c6ccc(O)cc6)oc45)c3)oc2c1	–	inconclusive: 7.08 µM [inhibitor, full curve, poor fit]
Oc1cccc(-c2c3nc(c(-c4cccc(O)c4)c4ccc([nH]4)c(-c4cccc(O)c4)c4nc(c(-c5cccc(O)c5)c5ccc2[nH]5)CC4)C=C3)c1	–	active: 7.08 µM
C/C(=C\c1ccc(C(=O)O)cc1)c1ccc2c(c1)C(C)(C)CCC2(C)C	–	inconclusive: 4.47 µM [inhibitor, full curve, poor fit]
C=C1c2cccc(O)c2C(O)=C2C(=O)[C@]3(O)C(O)=C(C(N)=O)C(=O)[C@@H](N(C)C)[C@@H]3[C@@H](O)[C@H]12	–	inconclusive: 3.55 µM [inhibitor, partial curve] and inconclusive: 11.2 µM [inhibitor, full curve, poor fit]
CC(=O)Nc1ccc([C@H](C)C(=O)Nc2ncc(C(C)C)s2)cc1	–	inconclusive: 14.1 µM [inhibitor, partial curve, poor fit]
CCCCCc1ccc(/C=C/C(=O)Nc2cc(Cl)ccc2C(=O)O)cc1	–	inconclusive: 28.2 µM [inhibitor, partial curve, poor fit]
CC[C@H](C)[C@H]1O[C@]2(CC[C@@H]1C)C[C@@H]1C[C@@H](C/C=C(\C)[C@@H](O[C@H]3C[C@H](OC)[C@@H](O[C@H]4C[C@H](OC)[C@@H](O)[C@H](C)O4)[C@H](C)O3)[C@@H](C)/C=C/C=C3\CO[C@@H]4[C@H](O)C(C)=C[C@@H](C(=O)O1)[C@]34O)O2	inactive: 3.23%	–
N#Cc1ccc(N2N=C3c4ccc(C(=O)O)cc4CC[C@@H]3[C@@H]2C2CCCC2)cc1Cl	–	inconclusive: 3.98 µM [inhibitor, partial curve, poor fit]
CCOc1ccc(-c2ccc(Cn3c(CC(C)(C)C(=O)O)c(SC(C)(C)C)c4cc(OCc5ccc(C)cn5)ccc43)cc2)cn1	–	inconclusive: 11.2 µM [inhibitor, partial curve, poor fit]
O=S(=O)(Nc1cc(Cl)c(Oc2cnc3ccccc3c2)c(Cl)c1)c1ccc(Cl)cc1Cl	–	inconclusive: 5.01 µM [inhibitor, full curve, poor fit]
COc1ccc(Cl)c(Nc2nc3ccccc3nc2NS(=O)(=O)c2cccc(NC(=O)C(C)(C)N)c2)c1	–	inconclusive: 10 µM [inhibitor, full curve, poor fit]
O=C(O)c1cccc(-c2ccc(-c3cn(C(=O)N4CCCCC4Cc4ccccc4)nn3)cc2)c1 (centres undefined)	–	inconclusive: 2.51 µM [inhibitor, full curve, poor fit]
O=C(O)CC1CCC(c2ccc(-c3ccc(Nc4ccc(C(F)(F)F)nc4)cn3)cc2)CC1 (centres undefined)	–	inconclusive: 28.2 µM [inhibitor, partial curve, poor fit]

Five structures out of the list, sorted by length of the SMILES, descending.
SMILES	activity change, negative = inhibition	Potency
C=C1c2cccc(O)c2C(O)=C2C(=O)[C@]3(O)C(O)=C(C(N)=O)C(=O)[C@@H](N(C)C)[C@@H]3[C@@H](O)[C@H]12	–	inconclusive: 3.55 µM [inhibitor, partial curve] and inconclusive: 11.2 µM [inhibitor, full curve, poor fit]
COc1cc(O)c2c(=O)cc(-c3ccc(OC)c(-c4c(O)cc(O)c5c(=O)cc(-c6ccc(O)cc6)oc45)c3)oc2c1	–	inconclusive: 7.08 µM [inhibitor, full curve, poor fit]
O=C(O)Cc1cccc(OCCCN(Cc2cccc(C(F)(F)F)c2Cl)CC(c2ccccc2)c2ccccc2)c1	–	inconclusive: 11.2 µM [inhibitor, partial curve, poor fit]
O=C(O)CC1CCC(c2ccc(-c3ccc(Nc4ccc(C(F)(F)F)nc4)cn3)cc2)CC1 (centres undefined)	–	inconclusive: 28.2 µM [inhibitor, partial curve, poor fit]
CCCCCc1ccc(/C=C/C(=O)Nc2cc(Cl)ccc2C(=O)O)cc1	–	inconclusive: 28.2 µM [inhibitor, partial curve, poor fit]

From PubChem BioAssay AID1347171 (National Center for Advancing Translational Sciences (NCATS), 2019)
